According to the supplement of paper PMC4635364:
Structures can show the parent of a compound that is named as a salt. The list shows a part of the results. Repeats in this data set agree poorly, so a single value says little.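 Cells: ReNCell VM human fetal ventral-midbrain neural progenitors, differentiated mitogen-free. Blinded raters compared doublecortin-stained (early neurons) or tyrosine hydroxylase-stained (dopaminergic neurons) images with untreated wells, where 0 means no change. After repeats and both raters were averaged, compounds scoring 2 or above became hits for retesting.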

Columns and labels:
ReNCell VM [1] = assay: neuronal differentiation score (DCX+ cell fraction vs untreated, manual image score) (score (-3 to 3)); higher = more neuronal differentiation; settings: 2 uM, 2 weeks
ReNCell VM [2] = assay: dopaminergic neuron differentiation score (TH+ cell fraction vs untreated, manual image score) (score (0 to 3)); higher = more TH+ dopaminergic neuron differentiation; settings: 2 uM, 4 weeks, BDNF 10 ng/ml + GDNF 10 ng/ml

COc1nc(C)nc(Cl)c1NC1=NCCN1 [Moxonidine hydrochloride]
inactive: neuronal differentiation score (ReNCell VM [1]; library: LOPAC) 0 | neuronal differentiation score (ReNCell VM [1]; library: Tocriscreen) 0 | dopaminergic neuron differentiation score (ReNCell VM [2]; library: LOPAC) 0 | dopaminergic neuron differentiation score (ReNCell VM [2]; library: Tocriscreen) 0

Cc1ccc(O)c(N=Nc2ccccc2)n1
inactive: neuronal differentiation score (ReNCell VM [1]; library: LOPAC) 0 | neuronal differentiation score (ReNCell VM [1]; library: Tocriscreen) 0 | dopaminergic neuron differentiation score (ReNCell VM [2]; library: LOPAC) 0 | dopaminergic neuron differentiation score (ReNCell VM [2]; library: Tocriscreen) 0

Cn1nnc2c(C(N)=O)ncn2c1=O [Temozolomide]
inactive: neuronal differentiation score (ReNCell VM [1]; library: Prestwick) 0 | neuronal differentiation score (ReNCell VM [1]; library: Tocriscreen) 0 | dopaminergic neuron differentiation score (ReNCell VM [2]; library: Prestwick) 0 | dopaminergic neuron differentiation score (ReNCell VM [2]; library: Tocriscreen) 0

NCCc1ccc(O)c(O)c1 [Dopamine hydrochloride]
inactive: neuronal differentiation score (ReNCell VM [1]; library: LOPAC) -1 | neuronal differentiation score (ReNCell VM [1]; library: Prestwick) 0 | dopaminergic neuron differentiation score (ReNCell VM [2]; library: LOPAC) 0 | dopaminergic neuron differentiation score (ReNCell VM [2]; library: Prestwick) 1

O=C1C(SCCO)=C(SCCO)C(=O)c2ccccc21
inactive: neuronal differentiation score (ReNCell VM [1]; library: LOPAC) 0 | neuronal differentiation score (ReNCell VM [1]; library: Tocriscreen) 0 | dopaminergic neuron differentiation score (ReNCell VM [2]; library: LOPAC) 0 | dopaminergic neuron differentiation score (ReNCell VM [2]; library: Tocriscreen) 0

CCN(CC)CC(=O)Nc1c(C)cccc1C [Lidocaine hydrochloride]
inactive: neuronal differentiation score (ReNCell VM [1]; library: LOPAC) 0 | neuronal differentiation score (ReNCell VM [1]; library: Prestwick) 0 | dopaminergic neuron differentiation score (ReNCell VM [2]; library: LOPAC) 0 | dopaminergic neuron differentiation score (ReNCell VM [2]; library: Prestwick) 0

C=C[C@@]1(C)CC(=O)[C@]2(O)[C@@]3(C)[C@@H](O)CCC(C)(C)[C@@H]3[C@H](O)[C@H](OC(C)=O)[C@@]2(C)O1 [Forskolin]
inactive: neuronal differentiation score (ReNCell VM [1]; library: LOPAC) 0 | neuronal differentiation score (ReNCell VM [1]; library: Tocriscreen) 1 | dopaminergic neuron differentiation score (ReNCell VM [2]; library: LOPAC) 0 | dopaminergic neuron differentiation score (ReNCell VM [2]; library: Tocriscreen) 0

Of the compounds above, these have a carbonyl joined to an NH by a bond outside any ring:
Cn1nnc2c(C(N)=O)ncn2c1=O [Temozolomide]
inactive: neuronal differentiation score (ReNCell VM [1]; library: Prestwick) 0 | neuronal differentiation score (ReNCell VM [1]; library: Tocriscreen) 0 | dopaminergic neuron differentiation score (ReNCell VM [2]; library: Prestwick) 0 | dopaminergic neuron differentiation score (ReNCell VM [2]; library: Tocriscreen) 0

CCN(CC)CC(=O)Nc1c(C)cccc1C [Lidocaine hydrochloride]
inactive: neuronal differentiation score (ReNCell VM [1]; library: LOPAC) 0 | neuronal differentiation score (ReNCell VM [1]; library: Prestwick) 0 | dopaminergic neuron differentiation score (ReNCell VM [2]; library: LOPAC) 0 | dopaminergic neuron differentiation score (ReNCell VM [2]; library: Prestwick) 0

Continued:

CC[C@]1(O)C[C@H]2CN(CCc3c([nH]c4ccccc34)[C@@](C(=O)OC)(c3cc4c(cc3OC)N(C=O)[C@H]3[C@@](O)(C(=O)OC)[C@H](OC(C)=O)[C@]5(CC)C=CCN6CC[C@]43[C@@H]65)C2)C1 [Vincristine sulfate]
inactive: neuronal differentiation score (ReNCell VM [1]; library: LOPAC) 0 | neuronal differentiation score (ReNCell VM [1]; library: Tocriscreen) 0 | dopaminergic neuron differentiation score (ReNCell VM [2]; library: LOPAC) 0 | dopaminergic neuron differentiation score (ReNCell VM [2]; library: Tocriscreen) 0

OC[C@H]1O[C@@H](n2cnc3c(N[C@H]4CCC[C@@H]4O)ncnc32)[C@H](O)[C@@H]1O
inactive: neuronal differentiation score (ReNCell VM [1]; library: LOPAC) -2 | neuronal differentiation score (ReNCell VM [1]; library: Tocriscreen) -3 | dopaminergic neuron differentiation score (ReNCell VM [2]; library: LOPAC) 0 | dopaminergic neuron differentiation score (ReNCell VM [2]; library: Tocriscreen) 0

NS(=O)(=O)c1cc2c(cc1Cl)N=CNS2(=O)=O [Chlorothiazide]
inactive: neuronal differentiation score (ReNCell VM [1]; library: LOPAC) 0 | neuronal differentiation score (ReNCell VM [1]; library: Prestwick) 0 | dopaminergic neuron differentiation score (ReNCell VM [2]; library: LOPAC) 0 | dopaminergic neuron differentiation score (ReNCell VM [2]; library: Prestwick) 0

CC(C)C(=O)Nc1ccc([N+](=O)[O-])c(C(F)(F)F)c1 [Flutamide]
inactive: neuronal differentiation score (ReNCell VM [1]; library: LOPAC) 0 | neuronal differentiation score (ReNCell VM [1]; library: Prestwick) 0 | dopaminergic neuron differentiation score (ReNCell VM [2]; library: LOPAC) 0 | dopaminergic neuron differentiation score (ReNCell VM [2]; library: Prestwick) 0

COc1cc2c(CCNC(C)=O)c[nH]c2cc1Cl [6-Chloromelatonin]
inactive: neuronal differentiation score (ReNCell VM [1]; library: LOPAC) 0 | neuronal differentiation score (ReNCell VM [1]; library: Tocriscreen) 0 | dopaminergic neuron differentiation score (ReNCell VM [2]; library: LOPAC) 0 | dopaminergic neuron differentiation score (ReNCell VM [2]; library: Tocriscreen) 0

COC(=O)c1c(C)[nH]c(C)c1C(=O)c1ccccc1Cc1ccccc1
inactive: neuronal differentiation score (ReNCell VM [1]; library: LOPAC) 0 | neuronal differentiation score (ReNCell VM [1]; library: Tocriscreen) 0 | dopaminergic neuron differentiation score (ReNCell VM [2]; library: LOPAC) 0 | dopaminergic neuron differentiation score (ReNCell VM [2]; library: Tocriscreen) 0

CC(=O)S[C@@H]1CC2=CC(=O)CC[C@]2(C)[C@H]2CC[C@@]3(C)[C@@H](CC[C@@]34CCC(=O)O4)[C@H]12 [Spironolactone]
inactive: neuronal differentiation score (ReNCell VM [1]; library: LOPAC) 0 | neuronal differentiation score (ReNCell VM [1]; library: Prestwick) 0 | dopaminergic neuron differentiation score (ReNCell VM [2]; library: LOPAC) 0 | dopaminergic neuron differentiation score (ReNCell VM [2]; library: Prestwick) 0

COCC(=O)O[C@]1(CCN(C)CCCc2nc3ccccc3[nH]2)CCc2cc(F)ccc2[C@@H]1C(C)C [Mibefradil dihydrochloride]
inactive: neuronal differentiation score (ReNCell VM [1]; library: LOPAC) 0 | neuronal differentiation score (ReNCell VM [1]; library: Tocriscreen) 0 | dopaminergic neuron differentiation score (ReNCell VM [2]; library: LOPAC) 0 | dopaminergic neuron differentiation score (ReNCell VM [2]; library: Tocriscreen) 0

Cc1noc(NS(=O)(=O)c2ccc(N)cc2)c1C [Sulfisoxazole]
inactive: neuronal differentiation score (ReNCell VM [1]; library: Prestwick) 0 | neuronal differentiation score (ReNCell VM [1]; library: Tocriscreen) 0 | dopaminergic neuron differentiation score (ReNCell VM [2]; library: Prestwick) 0 | dopaminergic neuron differentiation score (ReNCell VM [2]; library: Tocriscreen) 0

O=C1CCC(N2C(=O)c3ccccc3C2=O)C(=O)N1 (stereo not drawn) [Thalidomide]
inactive: neuronal differentiation score (ReNCell VM [1]; library: Prestwick) 0 | neuronal differentiation score (ReNCell VM [1]; library: Tocriscreen) 0 | dopaminergic neuron differentiation score (ReNCell VM [2]; library: Prestwick) 0 | dopaminergic neuron differentiation score (ReNCell VM [2]; library: Tocriscreen) 0

CCCCNC(=O)NS(=O)(=O)c1ccc(C)cc1 [Tolbutamide]
inactive: neuronal differentiation score (ReNCell VM [1]; library: LOPAC) 0 | neuronal differentiation score (ReNCell VM [1]; library: Prestwick) 0 | dopaminergic neuron differentiation score (ReNCell VM [2]; library: LOPAC) 0 | dopaminergic neuron differentiation score (ReNCell VM [2]; library: Prestwick) 0

COc1ccc(CCCOC(Cn2ccnc2)c2ccc(OC)cc2)cc1 (stereo not drawn)
inactive: neuronal differentiation score (ReNCell VM [1]; library: LOPAC) 0 | neuronal differentiation score (ReNCell VM [1]; library: Tocriscreen) 0 | dopaminergic neuron differentiation score (ReNCell VM [2]; library: LOPAC) 0 | dopaminergic neuron differentiation score (ReNCell VM [2]; library: Tocriscreen) 0

CC(C)(Oc1ccc(C2CC2(Cl)Cl)cc1)C(=O)O (stereo not drawn) [Ciprofibrate]
inactive: neuronal differentiation score (ReNCell VM [1]; library: LOPAC) 0 | neuronal differentiation score (ReNCell VM [1]; library: Prestwick) 0 | dopaminergic neuron differentiation score (ReNCell VM [2]; library: LOPAC) 0 | dopaminergic neuron differentiation score (ReNCell VM [2]; library: Prestwick) 0

Clc1ccc2c(c1)C(N1CCNCC1)=Nc1ccccc1O2 [Amoxapine]
inactive: neuronal differentiation score (ReNCell VM [1]; library: LOPAC) 0 | neuronal differentiation score (ReNCell VM [1]; library: Prestwick) 0 | dopaminergic neuron differentiation score (ReNCell VM [2]; library: LOPAC) 0 | dopaminergic neuron differentiation score (ReNCell VM [2]; library: Prestwick) 0

CC(C(O)c1ccc(O)cc1)N1CCC(Cc2ccccc2)CC1 (stereo not drawn) [Ifenprodil tartrate]
inactive: neuronal differentiation score (ReNCell VM [1]; library: LOPAC) 0 | neuronal differentiation score (ReNCell VM [1]; library: Prestwick) 0 | dopaminergic neuron differentiation score (ReNCell VM [2]; library: LOPAC) 0 | dopaminergic neuron differentiation score (ReNCell VM [2]; library: Prestwick) 0

CC(=O)N[C@@H](CC(=O)N[C@@H](CCC(=O)O)C(=O)O)C(=O)O [Spaglumic acid]
inactive: neuronal differentiation score (ReNCell VM [1]; library: Prestwick) 0 | neuronal differentiation score (ReNCell VM [1]; library: Tocriscreen) 0 | dopaminergic neuron differentiation score (ReNCell VM [2]; library: Prestwick) 0 | dopaminergic neuron differentiation score (ReNCell VM [2]; library: Tocriscreen) 0

NC(=O)c1ncn([C@@H]2O[C@H](CO)[C@@H](O)[C@H]2O)n1 [Ribavirin]
inactive: neuronal differentiation score (ReNCell VM [1]; library: LOPAC) 0 | neuronal differentiation score (ReNCell VM [1]; library: Prestwick) 0 | dopaminergic neuron differentiation score (ReNCell VM [2]; library: LOPAC) 0 | dopaminergic neuron differentiation score (ReNCell VM [2]; library: Prestwick) 0

O=c1c(-c2ccc(O)cc2)coc2cc(O)ccc12 [Daidzein]
inactive: neuronal differentiation score (ReNCell VM [1]; library: LOPAC) 0 | neuronal differentiation score (ReNCell VM [1]; library: Tocriscreen) -1 | dopaminergic neuron differentiation score (ReNCell VM [2]; library: LOPAC) 0 | dopaminergic neuron differentiation score (ReNCell VM [2]; library: Tocriscreen) 0

CCCNC(=O)NS(=O)(=O)c1ccc(Cl)cc1 [Chlorpropamide]
inactive: neuronal differentiation score (ReNCell VM [1]; library: LOPAC) 0 | neuronal differentiation score (ReNCell VM [1]; library: Prestwick) 0 | dopaminergic neuron differentiation score (ReNCell VM [2]; library: LOPAC) 0 | dopaminergic neuron differentiation score (ReNCell VM [2]; library: Prestwick) 0

CN(CCOc1ccc(C[C@H](Nc2ccccc2C(=O)c2ccccc2)C(=O)O)cc1)c1ccccn1
inactive: neuronal differentiation score (ReNCell VM [1]; library: LOPAC) 0 | neuronal differentiation score (ReNCell VM [1]; library: Tocriscreen) 0 | dopaminergic neuron differentiation score (ReNCell VM [2]; library: LOPAC) 0 | dopaminergic neuron differentiation score (ReNCell VM [2]; library: Tocriscreen) 0
